Results are given in words; binding and its absence hold for the method and conditions named.
How the values were obtained:
[1] = target: Maintenance of carboxysome distribution protein B (McdB) from Halothiobacillus neapolitanus, wild type (Halothiobacillus neapolitanus) (UniProt D0KZ81); assay: SEC-MALS; 50 µl at 1.5 mg/ml on a Shodex PROTEIN KW-804 column, 0.4 ml/min, 150 mM KCl, 20 mM Tris-HCl pH 8.2; both purified
[2] = target: Se McdB[CTD] (Synechococcus elongatus PCC 7942) (UniProt Q8GJM6); assay: SEC; 500 µl at 1.5 mg/ml on Superdex 75 Increase 10/300 GL, 0.4 ml/min, 150 mM KCl, 20 mM Tris-HCl pH 8.2; full-length Hn McdB (10 kDa) and Se McdB[NTD] peptide (2.3 kDa) as sizing standards; both purified

binding [1]	binding [2]	Binder
no binding (tested: 1.5 mg/ml)	–	Maintenance of carboxysome distribution protein B (McdB) from Halothiobacillus neapolitanus, wild type (protein, UniProt D0KZ81 1-96) MTNLEDKLSASIKTENKDTIAPASTPAKPAARSAAPETTKPASTGAKPATRTAAKKPVARATTTKPAVSKSSKPSADDIQVPAHDTSTHPRRVWPD
–	no binding (tested: 1.5 mg/ml)	LDLVLGQTTLREEVTLLRQELDQLKRKLHGW (domain or fragment, UniProt Q8GJM6 122-152) [Se McdB[CTD]]
